Like-named read-outs stand apart in the source and are kept apart here. Results are given in words; binding and its absence hold for the method and conditions named. Some entries that bind do so weakly or less than the wild type.

Amino acid sequences for entries named in this document (tags omitted). A change or cut given only in a name is not applied to a line headed by its entry. Chains listed by the source or under a name are the forms on record and can include a tag or linker.
UniProt P0CF65: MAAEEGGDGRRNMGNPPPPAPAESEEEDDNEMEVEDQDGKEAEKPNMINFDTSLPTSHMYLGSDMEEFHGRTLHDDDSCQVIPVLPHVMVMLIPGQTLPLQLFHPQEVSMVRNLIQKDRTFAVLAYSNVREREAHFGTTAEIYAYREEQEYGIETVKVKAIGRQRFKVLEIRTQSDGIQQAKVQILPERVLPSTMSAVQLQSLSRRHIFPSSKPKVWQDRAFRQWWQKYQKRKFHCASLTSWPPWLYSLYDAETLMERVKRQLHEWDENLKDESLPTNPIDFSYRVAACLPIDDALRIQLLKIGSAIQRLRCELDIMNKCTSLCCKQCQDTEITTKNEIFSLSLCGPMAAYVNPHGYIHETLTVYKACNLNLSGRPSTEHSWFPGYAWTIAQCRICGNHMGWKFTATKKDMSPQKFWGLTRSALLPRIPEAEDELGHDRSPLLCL
UniProt Q8C7D2: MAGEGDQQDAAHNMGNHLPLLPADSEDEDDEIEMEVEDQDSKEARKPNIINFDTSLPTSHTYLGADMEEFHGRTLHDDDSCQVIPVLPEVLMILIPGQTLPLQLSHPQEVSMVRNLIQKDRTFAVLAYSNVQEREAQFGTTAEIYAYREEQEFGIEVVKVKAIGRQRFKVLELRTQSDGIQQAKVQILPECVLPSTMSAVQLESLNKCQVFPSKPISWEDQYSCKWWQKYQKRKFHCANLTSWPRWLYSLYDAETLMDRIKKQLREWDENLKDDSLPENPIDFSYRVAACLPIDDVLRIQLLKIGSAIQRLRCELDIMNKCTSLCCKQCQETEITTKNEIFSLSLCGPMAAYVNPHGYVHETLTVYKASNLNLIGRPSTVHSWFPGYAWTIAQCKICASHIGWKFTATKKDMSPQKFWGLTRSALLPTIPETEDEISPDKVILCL
FLAG-GST-GgSall4 (A0A8V0YRY0, form named): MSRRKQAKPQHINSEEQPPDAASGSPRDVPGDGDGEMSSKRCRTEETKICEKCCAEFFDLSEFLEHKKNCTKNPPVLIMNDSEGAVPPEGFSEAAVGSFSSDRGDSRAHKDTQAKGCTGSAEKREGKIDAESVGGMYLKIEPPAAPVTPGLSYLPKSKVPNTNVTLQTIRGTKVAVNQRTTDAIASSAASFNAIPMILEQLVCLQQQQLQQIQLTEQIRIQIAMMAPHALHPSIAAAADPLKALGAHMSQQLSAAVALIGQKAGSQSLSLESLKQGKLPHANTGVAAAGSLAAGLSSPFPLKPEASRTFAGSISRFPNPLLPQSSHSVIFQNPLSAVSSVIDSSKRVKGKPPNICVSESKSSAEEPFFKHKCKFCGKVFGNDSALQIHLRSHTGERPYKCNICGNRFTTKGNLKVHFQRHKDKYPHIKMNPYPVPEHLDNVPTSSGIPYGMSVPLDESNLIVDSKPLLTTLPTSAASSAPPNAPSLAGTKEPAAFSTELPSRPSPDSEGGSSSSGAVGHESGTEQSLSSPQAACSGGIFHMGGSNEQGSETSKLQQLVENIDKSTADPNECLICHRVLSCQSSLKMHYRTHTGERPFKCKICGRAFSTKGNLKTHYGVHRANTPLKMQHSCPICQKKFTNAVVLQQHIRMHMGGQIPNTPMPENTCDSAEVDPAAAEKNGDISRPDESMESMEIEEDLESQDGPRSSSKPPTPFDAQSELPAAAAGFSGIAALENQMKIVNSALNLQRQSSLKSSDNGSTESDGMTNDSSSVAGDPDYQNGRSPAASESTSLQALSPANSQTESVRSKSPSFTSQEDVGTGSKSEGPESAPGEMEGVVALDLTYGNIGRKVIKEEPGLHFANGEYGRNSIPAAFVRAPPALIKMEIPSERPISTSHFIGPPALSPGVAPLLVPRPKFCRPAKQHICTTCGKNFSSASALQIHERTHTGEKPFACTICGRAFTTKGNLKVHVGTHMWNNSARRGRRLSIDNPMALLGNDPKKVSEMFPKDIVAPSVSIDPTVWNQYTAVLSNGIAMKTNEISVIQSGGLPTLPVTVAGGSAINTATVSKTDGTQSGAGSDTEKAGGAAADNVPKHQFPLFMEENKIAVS
UniProt Q8BX22: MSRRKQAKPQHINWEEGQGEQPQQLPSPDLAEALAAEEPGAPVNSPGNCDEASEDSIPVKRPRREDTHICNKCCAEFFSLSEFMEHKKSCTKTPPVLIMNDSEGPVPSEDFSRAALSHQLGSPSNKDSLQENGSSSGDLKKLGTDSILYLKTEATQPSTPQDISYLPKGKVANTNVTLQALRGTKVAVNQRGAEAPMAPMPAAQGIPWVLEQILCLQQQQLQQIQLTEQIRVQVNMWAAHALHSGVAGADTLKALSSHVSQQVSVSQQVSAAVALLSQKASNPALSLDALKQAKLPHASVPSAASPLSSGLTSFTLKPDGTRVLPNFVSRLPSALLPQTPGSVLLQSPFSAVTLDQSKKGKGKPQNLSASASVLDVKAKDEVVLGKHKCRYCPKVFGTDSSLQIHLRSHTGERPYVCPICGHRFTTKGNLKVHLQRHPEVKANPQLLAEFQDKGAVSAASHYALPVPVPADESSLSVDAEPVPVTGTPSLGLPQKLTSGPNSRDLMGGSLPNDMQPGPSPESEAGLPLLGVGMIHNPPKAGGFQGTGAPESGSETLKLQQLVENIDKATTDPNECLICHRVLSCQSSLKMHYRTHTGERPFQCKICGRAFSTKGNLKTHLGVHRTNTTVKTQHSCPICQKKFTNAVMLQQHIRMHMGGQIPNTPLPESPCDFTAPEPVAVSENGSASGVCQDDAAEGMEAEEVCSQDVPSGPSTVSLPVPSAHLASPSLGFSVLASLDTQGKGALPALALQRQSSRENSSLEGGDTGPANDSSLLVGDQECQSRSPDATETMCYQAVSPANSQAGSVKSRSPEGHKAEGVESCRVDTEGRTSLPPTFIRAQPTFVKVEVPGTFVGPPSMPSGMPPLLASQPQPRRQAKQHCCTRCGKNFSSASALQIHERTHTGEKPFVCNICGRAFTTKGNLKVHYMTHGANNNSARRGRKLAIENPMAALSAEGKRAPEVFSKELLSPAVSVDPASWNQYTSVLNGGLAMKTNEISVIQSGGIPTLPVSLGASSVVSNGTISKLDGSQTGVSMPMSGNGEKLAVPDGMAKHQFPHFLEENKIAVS

Common to all, as to test: AlphaScreen or HTRF
Background: In Alpha technology, singlet oxygen from a donor bead excites a nearby acceptor bead.

For experiment [1], the target named is biotinylated GgCrbn, wild type (chicken) (UniProt P0CF65).
For experiment [2], the target named is biotinylated HsCRBN (bls-CRBN), wild type (human) (UniProt Q96SW2).
Experiment [3] shares this target. This is another data set of the same source.
The target of experiment [4] is biotinylated MmCrbn, wild type (mouse) (UniProt Q8C7D2).

For the substance “FLAG-GST-GgSall4 (from UniProt A0A8V0YRY0 1-1108)”, in experiment [1], the binding result is on record as “no binding”.
In the case of “FLAG-GST-HNRNPK (from UniProt P61978 1-463)”, the binding result in experiment [2] and in experiment [3] was “binds” throughout.
Turning to “FLAG-GST-MmSall4 (from UniProt Q8BX22 1-1067)”, the binding entry in experiment [4] is given as “no binding”.

(Values after doi:10.1101/2020.02.28.969071.)
